According to the supplement of paper PMC10849652:
This is one part of the list.

The chains behind the UniProt entries cited, without tags or fusion partners. Where a name states a change or a piece, a line headed by the entry shows the natural chain unless it says otherwise.
UniProt Q9UBD5: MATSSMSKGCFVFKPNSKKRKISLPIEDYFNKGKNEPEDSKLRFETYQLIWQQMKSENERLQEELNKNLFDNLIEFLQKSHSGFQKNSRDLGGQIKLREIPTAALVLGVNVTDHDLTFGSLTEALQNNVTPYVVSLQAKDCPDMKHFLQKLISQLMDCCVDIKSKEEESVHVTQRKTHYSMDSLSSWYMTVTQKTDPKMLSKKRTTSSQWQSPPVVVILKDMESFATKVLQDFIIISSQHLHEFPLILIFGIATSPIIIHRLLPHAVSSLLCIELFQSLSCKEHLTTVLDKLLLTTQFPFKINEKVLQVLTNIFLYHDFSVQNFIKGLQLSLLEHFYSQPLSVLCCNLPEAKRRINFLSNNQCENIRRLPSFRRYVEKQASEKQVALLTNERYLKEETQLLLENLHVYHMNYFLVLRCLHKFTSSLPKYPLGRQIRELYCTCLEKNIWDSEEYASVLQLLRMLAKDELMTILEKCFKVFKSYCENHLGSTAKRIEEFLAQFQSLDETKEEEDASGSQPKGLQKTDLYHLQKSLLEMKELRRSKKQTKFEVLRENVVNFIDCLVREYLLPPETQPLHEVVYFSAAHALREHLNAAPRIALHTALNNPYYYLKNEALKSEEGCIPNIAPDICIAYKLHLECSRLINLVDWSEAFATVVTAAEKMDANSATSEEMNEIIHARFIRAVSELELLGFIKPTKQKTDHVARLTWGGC
UniProt Q8N573: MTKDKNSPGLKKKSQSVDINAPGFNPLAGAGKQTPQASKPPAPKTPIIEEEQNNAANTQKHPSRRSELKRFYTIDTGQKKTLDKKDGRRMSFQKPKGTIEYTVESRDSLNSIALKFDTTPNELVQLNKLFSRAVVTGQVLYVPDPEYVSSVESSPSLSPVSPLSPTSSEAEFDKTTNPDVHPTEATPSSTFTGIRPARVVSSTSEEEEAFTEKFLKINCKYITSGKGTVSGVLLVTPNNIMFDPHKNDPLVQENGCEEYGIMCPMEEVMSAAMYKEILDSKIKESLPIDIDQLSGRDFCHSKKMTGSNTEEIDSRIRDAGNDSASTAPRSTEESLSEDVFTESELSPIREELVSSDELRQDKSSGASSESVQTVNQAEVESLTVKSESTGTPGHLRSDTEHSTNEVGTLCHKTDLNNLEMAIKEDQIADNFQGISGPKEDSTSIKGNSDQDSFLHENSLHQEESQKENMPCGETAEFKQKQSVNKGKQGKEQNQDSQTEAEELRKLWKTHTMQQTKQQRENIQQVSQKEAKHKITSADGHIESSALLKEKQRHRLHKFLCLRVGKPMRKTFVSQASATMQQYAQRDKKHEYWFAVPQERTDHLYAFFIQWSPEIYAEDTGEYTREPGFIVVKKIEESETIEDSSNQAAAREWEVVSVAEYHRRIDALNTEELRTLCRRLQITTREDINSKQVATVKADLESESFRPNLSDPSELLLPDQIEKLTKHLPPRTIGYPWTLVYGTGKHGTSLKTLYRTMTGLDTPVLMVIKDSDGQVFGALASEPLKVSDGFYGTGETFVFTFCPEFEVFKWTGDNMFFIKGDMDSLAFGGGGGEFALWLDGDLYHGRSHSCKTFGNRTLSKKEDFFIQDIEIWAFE
UniProt Q13438: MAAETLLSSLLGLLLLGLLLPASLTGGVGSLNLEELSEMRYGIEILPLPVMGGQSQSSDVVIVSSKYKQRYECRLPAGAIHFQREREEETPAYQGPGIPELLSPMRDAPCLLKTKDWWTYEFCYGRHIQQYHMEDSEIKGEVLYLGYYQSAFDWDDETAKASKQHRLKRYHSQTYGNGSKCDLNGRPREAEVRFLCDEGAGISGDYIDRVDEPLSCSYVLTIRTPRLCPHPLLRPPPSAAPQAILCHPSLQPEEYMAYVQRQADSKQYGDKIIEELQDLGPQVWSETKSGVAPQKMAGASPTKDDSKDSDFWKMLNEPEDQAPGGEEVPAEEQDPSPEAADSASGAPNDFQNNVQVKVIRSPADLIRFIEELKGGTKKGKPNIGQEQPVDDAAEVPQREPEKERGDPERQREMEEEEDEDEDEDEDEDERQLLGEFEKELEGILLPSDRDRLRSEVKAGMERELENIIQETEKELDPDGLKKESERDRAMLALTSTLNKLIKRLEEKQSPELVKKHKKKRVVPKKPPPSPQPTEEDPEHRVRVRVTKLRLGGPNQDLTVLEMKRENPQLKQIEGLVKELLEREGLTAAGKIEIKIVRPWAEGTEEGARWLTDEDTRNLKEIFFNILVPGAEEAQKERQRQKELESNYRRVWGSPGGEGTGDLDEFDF
UniProt Q9NPJ8: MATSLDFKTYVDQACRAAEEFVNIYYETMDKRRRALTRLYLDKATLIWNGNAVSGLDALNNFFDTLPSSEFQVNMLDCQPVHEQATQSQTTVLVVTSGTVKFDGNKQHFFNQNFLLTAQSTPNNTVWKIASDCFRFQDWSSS
UniProt Q9GZY0: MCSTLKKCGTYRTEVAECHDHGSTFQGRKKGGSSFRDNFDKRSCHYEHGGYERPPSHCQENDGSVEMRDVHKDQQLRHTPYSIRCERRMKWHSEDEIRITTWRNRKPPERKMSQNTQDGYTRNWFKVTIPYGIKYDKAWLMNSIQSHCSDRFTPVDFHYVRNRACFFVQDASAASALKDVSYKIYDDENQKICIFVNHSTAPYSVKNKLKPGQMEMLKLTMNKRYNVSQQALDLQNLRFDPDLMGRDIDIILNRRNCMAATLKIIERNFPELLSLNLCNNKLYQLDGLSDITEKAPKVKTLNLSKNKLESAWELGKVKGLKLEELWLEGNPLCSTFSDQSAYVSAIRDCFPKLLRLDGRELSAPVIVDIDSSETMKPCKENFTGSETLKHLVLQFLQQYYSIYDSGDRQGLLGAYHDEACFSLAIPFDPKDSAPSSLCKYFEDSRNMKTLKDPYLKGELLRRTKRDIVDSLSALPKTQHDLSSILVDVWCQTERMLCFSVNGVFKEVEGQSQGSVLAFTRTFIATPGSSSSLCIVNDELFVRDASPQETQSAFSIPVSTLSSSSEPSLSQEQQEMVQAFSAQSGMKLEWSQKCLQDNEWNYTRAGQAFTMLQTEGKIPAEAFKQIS
UniProt P47900: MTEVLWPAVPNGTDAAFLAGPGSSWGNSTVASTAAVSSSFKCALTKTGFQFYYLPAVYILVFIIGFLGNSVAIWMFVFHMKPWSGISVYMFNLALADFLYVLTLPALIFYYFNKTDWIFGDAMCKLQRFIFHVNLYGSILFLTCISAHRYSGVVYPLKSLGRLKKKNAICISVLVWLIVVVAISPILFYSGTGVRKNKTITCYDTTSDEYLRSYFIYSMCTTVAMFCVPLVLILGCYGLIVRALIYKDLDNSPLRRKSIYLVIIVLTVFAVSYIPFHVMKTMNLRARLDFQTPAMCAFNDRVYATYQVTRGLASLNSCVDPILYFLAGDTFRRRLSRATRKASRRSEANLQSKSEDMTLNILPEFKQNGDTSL
UniProt O60890: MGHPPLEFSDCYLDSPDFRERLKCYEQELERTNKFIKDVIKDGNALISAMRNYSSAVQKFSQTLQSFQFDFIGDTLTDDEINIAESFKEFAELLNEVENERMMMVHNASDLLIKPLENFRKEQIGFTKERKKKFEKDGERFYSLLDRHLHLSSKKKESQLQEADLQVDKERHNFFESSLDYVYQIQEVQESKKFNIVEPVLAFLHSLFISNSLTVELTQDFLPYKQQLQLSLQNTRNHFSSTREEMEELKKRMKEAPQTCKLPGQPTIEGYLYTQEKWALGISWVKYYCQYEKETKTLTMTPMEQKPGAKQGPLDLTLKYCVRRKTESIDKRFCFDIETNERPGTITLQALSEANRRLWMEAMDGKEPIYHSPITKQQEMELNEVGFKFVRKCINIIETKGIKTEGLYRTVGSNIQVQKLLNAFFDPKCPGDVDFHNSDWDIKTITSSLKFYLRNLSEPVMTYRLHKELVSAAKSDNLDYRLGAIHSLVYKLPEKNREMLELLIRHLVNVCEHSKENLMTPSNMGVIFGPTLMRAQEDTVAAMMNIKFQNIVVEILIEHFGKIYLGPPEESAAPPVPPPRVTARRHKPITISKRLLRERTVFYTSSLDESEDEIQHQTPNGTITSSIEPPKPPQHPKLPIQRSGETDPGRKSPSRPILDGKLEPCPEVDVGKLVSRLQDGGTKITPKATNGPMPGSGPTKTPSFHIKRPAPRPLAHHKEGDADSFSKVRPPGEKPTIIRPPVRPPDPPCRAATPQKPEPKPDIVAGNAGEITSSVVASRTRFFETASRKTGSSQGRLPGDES
UniProt Q96D31, whole entry, looked up: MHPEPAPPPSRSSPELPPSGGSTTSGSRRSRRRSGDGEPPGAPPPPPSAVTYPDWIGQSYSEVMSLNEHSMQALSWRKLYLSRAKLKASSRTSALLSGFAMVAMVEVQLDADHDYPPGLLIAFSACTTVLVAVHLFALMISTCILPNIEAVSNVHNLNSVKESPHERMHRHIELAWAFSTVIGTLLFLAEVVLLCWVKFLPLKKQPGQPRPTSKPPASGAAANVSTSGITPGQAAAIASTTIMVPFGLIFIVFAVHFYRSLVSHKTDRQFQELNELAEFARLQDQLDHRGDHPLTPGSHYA
UniProt Q5BKU9: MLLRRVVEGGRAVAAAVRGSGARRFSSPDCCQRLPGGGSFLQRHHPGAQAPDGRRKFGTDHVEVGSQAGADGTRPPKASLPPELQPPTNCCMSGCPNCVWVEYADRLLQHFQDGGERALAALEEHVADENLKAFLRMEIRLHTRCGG
UniProt Q8N7B6: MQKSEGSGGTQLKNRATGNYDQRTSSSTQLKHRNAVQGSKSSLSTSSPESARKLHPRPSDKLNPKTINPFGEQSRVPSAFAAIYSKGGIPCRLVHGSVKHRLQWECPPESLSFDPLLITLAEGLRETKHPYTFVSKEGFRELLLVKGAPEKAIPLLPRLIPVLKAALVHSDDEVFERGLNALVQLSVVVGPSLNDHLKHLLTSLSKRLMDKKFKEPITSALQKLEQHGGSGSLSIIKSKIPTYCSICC
UniProt Q9BXW6, whole entry, looked up: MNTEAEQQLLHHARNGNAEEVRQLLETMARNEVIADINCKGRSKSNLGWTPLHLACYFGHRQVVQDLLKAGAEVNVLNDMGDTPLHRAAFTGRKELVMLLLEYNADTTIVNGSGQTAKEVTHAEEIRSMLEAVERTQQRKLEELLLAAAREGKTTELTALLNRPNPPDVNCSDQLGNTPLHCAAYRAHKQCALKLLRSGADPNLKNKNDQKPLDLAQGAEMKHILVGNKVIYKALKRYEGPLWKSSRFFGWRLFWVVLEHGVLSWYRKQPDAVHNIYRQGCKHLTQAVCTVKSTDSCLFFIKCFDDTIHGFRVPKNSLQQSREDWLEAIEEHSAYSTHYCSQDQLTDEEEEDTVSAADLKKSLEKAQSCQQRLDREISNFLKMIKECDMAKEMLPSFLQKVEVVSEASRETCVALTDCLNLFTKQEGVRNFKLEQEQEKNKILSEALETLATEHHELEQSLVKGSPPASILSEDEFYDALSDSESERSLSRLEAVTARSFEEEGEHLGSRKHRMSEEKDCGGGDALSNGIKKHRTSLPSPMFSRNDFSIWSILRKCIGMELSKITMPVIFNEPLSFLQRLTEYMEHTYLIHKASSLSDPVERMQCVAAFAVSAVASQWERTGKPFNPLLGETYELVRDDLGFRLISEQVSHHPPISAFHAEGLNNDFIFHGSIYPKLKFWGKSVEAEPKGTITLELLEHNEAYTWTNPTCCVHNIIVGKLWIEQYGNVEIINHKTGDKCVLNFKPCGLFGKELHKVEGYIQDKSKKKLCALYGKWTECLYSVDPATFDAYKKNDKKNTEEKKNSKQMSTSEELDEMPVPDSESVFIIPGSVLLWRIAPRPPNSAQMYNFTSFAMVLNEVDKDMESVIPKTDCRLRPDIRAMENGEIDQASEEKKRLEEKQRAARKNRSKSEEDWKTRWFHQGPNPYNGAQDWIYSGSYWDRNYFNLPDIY
UniProt O15527, whole entry, looked up: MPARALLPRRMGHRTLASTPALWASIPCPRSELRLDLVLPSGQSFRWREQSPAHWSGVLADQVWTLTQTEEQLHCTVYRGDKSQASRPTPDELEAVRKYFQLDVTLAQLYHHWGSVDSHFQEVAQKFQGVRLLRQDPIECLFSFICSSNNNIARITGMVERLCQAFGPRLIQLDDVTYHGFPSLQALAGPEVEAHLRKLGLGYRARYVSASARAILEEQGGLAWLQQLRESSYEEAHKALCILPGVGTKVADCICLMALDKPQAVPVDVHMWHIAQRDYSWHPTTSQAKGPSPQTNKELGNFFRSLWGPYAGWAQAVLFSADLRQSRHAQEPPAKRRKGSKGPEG
UniProt Q8N4S7: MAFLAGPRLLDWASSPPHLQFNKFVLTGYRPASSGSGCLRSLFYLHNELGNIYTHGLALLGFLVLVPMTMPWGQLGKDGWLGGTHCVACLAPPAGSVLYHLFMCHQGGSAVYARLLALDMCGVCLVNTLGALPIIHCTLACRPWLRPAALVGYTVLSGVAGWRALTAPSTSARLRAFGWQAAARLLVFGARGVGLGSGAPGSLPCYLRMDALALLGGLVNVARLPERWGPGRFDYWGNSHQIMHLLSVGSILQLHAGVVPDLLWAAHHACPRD

Columns and labels:
Test in all cases: log2 fold change, soluble protein after heating vs DMSO (PISA); higher = thermal stabilisation; K562 lysate, 10 uM; active = over 0.2 and 3.5 SD of the protein, either way, in both replicates (recomputed)
[1] = compound: CCCS(=O)(=O)Nc1ccc(F)c(C(=O)c2c[nH]c3ncc(Cl)cc23)c1F
Procedure, shortened: (§1)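 The values are log-two fold changes in thermal stability compared with solvent controls and come from duplicates. They were obtained by TMTpro 16plex LC-MS/MS, with channel sums equalised, on the supernatant after 21,000xg for 90 min. That supernatant came from crude K562 extract at 1 mg/mL protein treated with 10 μM compound for 30 min, heated for 3 min across 48°C-58°C, pooled and brought to 0.5% NP-40 at 4°C.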

barasertib = compound: CCN(CCCOc1ccc2c(Nc3cc(CC(=O)Nc4cccc(F)c4)[nH]n3)ncnc2c1)CCOP(=O)(O)O [barasertib]
Procedure, shortened: as §1

volasertib = compound: CC[C@@H]1C(=O)N(C)c2cnc(Nc3ccc(C(=O)N[C@H]4CC[C@H](N5CCN(CC6CC6)CC5)CC4)cc3OC)nc2N1C(C)C [volasertib]
Procedure, shortened: as §1

[2] = compound: CCn1c(C(=O)N(C2CC2)C2CC2)cc2c3c(ncn3C)c(Nc3cc(C)n(C)n3)nc21
Procedure, shortened: as §1

[3] = compound: CCn1cc(-c2ccnc3[nH]c(-c4cccc(CN(C)C)c4)cc23)c(-c2ccc(NC(=O)N(C)C)cc2)n1
Procedure, shortened: as §1

[4] = compound: CN1CCC(CNc2ccc3ncc(-c4cccc(OC(F)(F)F)c4)n3n2)CC1
Procedure, shortened: as §1

alvocidib = compound: CN1CC[C@H](c2c(O)cc(O)c3c(=O)cc(-c4ccccc4Cl)oc23)[C@H](O)C1 [alvocidib]
Procedure, shortened: as §1

Tubastatin A = compound: CN1CCc2c(c3ccccc3n2Cc2ccc(C(=O)NO)cc2)C1 [Tubastatin A]
Procedure, shortened: as §1

[5] = compound: CNC(=O)C1=CC=CC=C1NC2=NC(=NC=C2Cl)NC3=C(C=C(C=C3)N4CCOCC4)OC
Procedure, shortened: as §1

alisertib = compound: COc1cc(Nc2ncc3c(n2)-c2ccc(Cl)cc2C(c2c(F)cccc2OC)=NC3)ccc1C(=O)O [alisertib]
Procedure, shortened: as §1

[6] = compound: COc1cc2nc(-c3cc(F)ccc3O)nc(N[C@@H]3CNC[C@H]3C(C)(C)O)c2cc1OC
Procedure, shortened: as §1

gefitinib = compound: COc1cc2ncnc(Nc3ccc(F)c(Cl)c3)c2cc1OCCCN1CCOCC1 [gefitinib]
Procedure, shortened: as §1

[7] = compound: CC[C@@H]1C(=O)N(C)c2cnc(Nc3ccc(C(=O)NC4CCN(C)CC4)cc3OC)nc2N1C1CCCC1
Procedure, shortened: as §1

sotrastaurin = compound: CN1CCN(c2nc(C3=C(c4c[nH]c5ccccc45)C(=O)NC3=O)c3ccccc3n2)CC1 [sotrastaurin]
Procedure, shortened: as §1

encorafenib = compound: COC(=O)N[C@@H](C)CNc1nccc(-c2cn(C(C)C)nc2-c2cc(Cl)cc(NS(C)(=O)=O)c2F)n1 [encorafenib]
Procedure, shortened: as §1

[8] = compound: COC(=O)[C@H](CCSC)NC(=O)C1=C(C=C(C=C1)NC[C@H](CS)N)C2=CC=CC=C2
Procedure, shortened: as §1

saracatinib = compound: CN1CCN(CCOc2cc(OC3CCOCC3)c3c(Nc4c(Cl)ccc5c4OCO5)ncnc3c2)CC1 [saracatinib]
Procedure, shortened: as §1

[9] = compound: CNc1nc(-c2ccc3c(N)n[nH]c3c2)cc(N2C[C@@H](C(=O)NC3CCCCC3)CC[C@H]2C)n1
Procedure, shortened: as §1

Measured: log2 fold change

NUP214 isoform 4 (UniProt P35658)
inactive: [1] 0.08 | barasertib 0.027 | volasertib -0.012 | [2] -0.366 | [3] -0.039 | [4] 0.047 | alvocidib -0.062 | Tubastatin A 0.051 | [5] -0.006 | alisertib 0 | [6] -0.022 | gefitinib -0.041

PACS2 isoform 2 (UniProt Q86VP3)
inactive: [7] -0.201 | [2] 0.027 | [3] -0.159 | [4] -0.001 | sotrastaurin 0.161 | alvocidib -0.119 | Tubastatin A -0.018 | [5] 0.06 | encorafenib -0.056 | [8] 0.118

ORC3 (UniProt Q9UBD5)
inactive: [1] -0.16 | volasertib 0.003 | [3] 0.185 | [4] -0.06 | alvocidib 0.16 | alisertib -0.035 | [6] 0 | gefitinib 0.105

OXR1 isoform 7 (UniProt Q8N573)
inactive: [3] 0.007 | [4] -0.044 | alvocidib -0.034

OGDH isoform 2 (UniProt Q02218)
inactive: [3] -0.251 | [4] -0.08 | alvocidib 0.002

PARD3B (UniProt Q8TEW8)
inactive: [3] 1.46 | [4] -0.046 | saracatinib -0.002 | alvocidib -0.125 | [5] 0.005 | [9] 0.093

PAQR7 (UniProt Q86WK9)
inactive: [5] -0.199

OAS3 (UniProt Q9Y6K5)
inactive: [1] -0.147 | [7] 0.023 | volasertib 0.069 | [2] -0.225 | sotrastaurin 0.109 | Tubastatin A 0.159 | [5] 0.096 | encorafenib 0.04 | [8] -0.26 | alisertib 0.041 | [6] 0.001 | gefitinib -0.007

OS9 isoform 7 (UniProt Q13438)
inactive: [3] -0.114 | [4] 0.096 | alvocidib -0.087 | [5] 0.035

PAOX (UniProt Q6QHF9)
inactive: barasertib -0.358 | [2] -0.046 | sotrastaurin 0.093 | Tubastatin A 0.055

NXT2 isoform 3 (UniProt Q9NPJ8)
inactive: [1] -0.05 | volasertib 0.118 | [3] -0.225 | [4] 0.043 | alvocidib 0.117 | [6] -0.101

P4HB (UniProt I3L0S0)
inactive: [1] 0.068 | volasertib 0.124 | [6] -0.038

OSBPL9 (UniProt E9PLH0)
inactive: barasertib -0.206 | [5] 0.054

NXF2 (UniProt Q9GZY0)
inactive: [3] 0.245 | [4] -0.102 | saracatinib -0.134 | alvocidib 0.162 | [5] 0.104 | [9] -0.026

PABPC1 (UniProt H0YAR2)
inactive: [1] -0.001 | barasertib 0.001 | volasertib -0.001 | [2] 0.04 | [3] 0.07 | [4] 0.173 | sotrastaurin -0.029 | alvocidib 0.021 | Tubastatin A -0.03 | [5] -0.004 | alisertib -0.107 | [6] 0.064 | gefitinib 0.042

NXPE1 (UniProt F5H0Y6)
inactive: [1] 0.218 | barasertib 0.178 | volasertib -0.021 | [6] 0.087

ORC1 (UniProt Q13415)
inactive: [7] 0.185 | encorafenib 0.018 | [8] -0.188

P2RY1 (UniProt P47900)
inactive: [1] -0.08 | barasertib 0.034 | [7] 0.006 | volasertib -0.111 | [2] 0.022 | [3] 0.057 | [4] 0.093 | saracatinib 0.015 | alvocidib -0.025 | Tubastatin A 0.06 | [5] -0.077 | [9] -0.013 | encorafenib 0.054 | [8] 0.057 | [6] -0.068

NUP214, A0A494C1F2
inactive: [2] -0.015 | Tubastatin A -0.262 | [5] -0.169

Quoted at random: 2 entries already listed.
NUP214, A0A494C1F2
inactive: [2] -0.015 | Tubastatin A -0.262 | [5] -0.169

ORC1 (UniProt Q13415)
inactive: [7] 0.185 | encorafenib 0.018 | [8] -0.188

Following part

OPHN1 (UniProt O60890)
inactive: [1] -0.011 | barasertib -0.025 | [7] -0.061 | volasertib 0.007 | [2] -0.117 | [3] 0.095 | [4] -0.044 | saracatinib -0.072 | alvocidib 0.022 | Tubastatin A 0.111 | [9] 0.062 | encorafenib 0.221 | [8] 0.003 | [6] 0.117

PAN3 (UniProt Q58A45)
inactive: sotrastaurin 0.059 | alisertib -0.17 | gefitinib -0.201

OBSCN isoform 6 (UniProt Q5VST9)
inactive: [1] -0.031 | volasertib -0.121 | [5] 0.009 | [6] 0.088

OCIAD1 (UniProt D6RF01)
inactive: [1] 0.027 | barasertib -0.121 | volasertib 0.033 | alisertib -0.646 | [6] 0.109 | gefitinib -0.423

ORAI1 (UniProt Q96D31)
inactive: [1] -0.16 | barasertib 0.187 | [7] 0.003 | volasertib -0.05 | [2] -0.094 | [3] -0.109 | [4] 0.045 | sotrastaurin -0.006 | alvocidib -0.064 | Tubastatin A 0.173 | [5] -0.096 | encorafenib 0.053 | [8] -0.147 | alisertib -0.02 | [6] 0.028 | gefitinib -0.005

OXLD1 (UniProt Q5BKU9)
inactive: [1] -0.103 | volasertib 0.187 | [2] 0.004 | sotrastaurin 0.074 | Tubastatin A 0.21 | alisertib -0.128 | [6] -0.054 | gefitinib -0.167

PACRGL (UniProt Q8N7B6)
inactive: [7] 0.086 | [3] 0.245 | [4] -0.063 | saracatinib -0.136 | sotrastaurin -0.311 | alvocidib 0.022 | [9] -0.076 | encorafenib -0.141 | [8] -0.094

OSBPL1A (UniProt Q9BXW6)
inactive: [1] 0.028 | barasertib 0.007 | volasertib 0.019 | [3] -0.095 | [4] 0.05 | saracatinib 0.013 | sotrastaurin 0.038 | alvocidib -0.035 | [5] 0.091 | [9] 0.099 | alisertib -0.071 | [6] 0.048 | gefitinib 0.135

OGG1 isoform 4 (UniProt O15527)
inactive: [7] 0.013 | saracatinib -0.023 | [5] -0.053 | [9] 0.098 | encorafenib 0.024 | [8] -0.021

PAQR4 (UniProt Q8N4S7)
inactive: [5] -0.061
